Assay results as given in US9901615B2, “Method for treatment of gastric ulcers” (priority 2015, dated 2018).
Part of at least one peptide drawing is inferred or uncertain, most often the ends. Where no end group is shown, it is not given here.

Tests used:
[1] = system: H. pylori; assay: Dose and time-dependent killing by TP4; assay type: cell-based, Helicobacter pylori; settings: 1×MIC
Experimental: TP4 peptide solutions (100 μl) at concentrations corresponding to ¼, ½, 1, 2, and 4 fold the MIC were prepared and added to an equal volume of solution containing H. pylori counts of approximately 10^7 CFU mL-1 onto a microtitre plate. The plates were incubated at 37° C., and samples were collected at 1, 3, 6, 12, and 24 h and plated with appropriate dilutions onto blood agar plates; bacterial counts were enumerated and expressed as mean log (CFU mL-1) with standard error.

[2] = system: H. pylori ureB, cagA, Urease B; assay: H. pylori virulence factor genes (PCR) and Urease B Western blot in gastric tissue; assay type: in vivo, C3H/HeN mice; settings: infected mice
[3] = system: cytokine mRNA in gastric tissue; assay: Gastric tissue gene expression analysis by Q-PCR (Epi-1 study); assay type: in vivo, C3H/HeN mice; settings: infected mice
[4] = system: splenic T cell subsets (Treg, Th17); assay: Splenic T cell subset populations by flow cytometry (Epi-1 study); assay type: in vivo, C3H/HeN mice; settings: infected mice
[5] = system: H. pylori; assay: Transmission electron microscopy (Epi-1); assay type: cell-based, Helicobacter pylori
Experimental: Transmission electron microscopy was used to examine Epi-1 induced morphological changes of H. pylori. The samples were fixed and processed as previously described. All samples were examined with an FEI Tecnai G2 F20 S-TWIN transmission electron microscope (FEI Company, Hillsboro, Oreg.) operating at an accelerating voltage of 80 kV. Images were recorded with a charge-coupled device camera at various magnifications.

[6] = system: H. pylori surface charge; assay: Zeta-potential measurements (Epi-1); assay type: cell-based, Helicobacter pylori; settings: peptide added
[7] = system: resistant H. pylori clinical isolate; assay: Turbidity fall assay, Epi-1 and antibiotics; assay type: cell-based, Helicobacter pylori

Row | Substance | time required to establish a 99% killing rate [1] | Urease B protein in gastric lysates (Western blot) [2] | ureB and cagA genes in gastric tissue (PCR) ([2]; day 22) | expression of IL-10 mRNA in gastric tissue [3] | H. pylori biased Treg subsets in splenocytes [4] | Th17/Treg balance in splenocytes [4] | Th17 counts in splenocytes [4] | morphology of H. pylori cells (TEM) [5] | zeta potential ([6]; H. pylori cultured on blood agar) | zeta potential ([6]; H. pylori in broth culture) | effect in combination with AMOX, METZ and CLRN [7]
1 | FIHHIIGGLFSAGKAIHRLIRRRRR [TP4, Nile tilapia piscidin 4] | about 3 h | abolished detectable protein | negative | – | – | – | – | – | – | – | –
2 | GFIFHIIKGLFHAGKMIHGLV-NH2 [Epi-1, Epinecidin-1] | – | – | – | significantly inhibited | significantly reduced | restored the Th17/Treg balance | moderately decreased | appeared as ghost cells | +3.52 mV | −14.03±0.75 mV | synergic effects
